{"source": "patent US20040043992A1", "about": "“Meloxicam for alleviating organ injury during organ operation or transplantation” (Boehringer Ingelheim International GmbH, priority 2002, published 2004)", "origin": "cited, not measured here", "system": "injury associated with ischemia/reperfusion of the brain, liver, kidney, lung, intestine, heart, and pancreas", "settings": "administered 30 minutes prior to an hemorrhagic shock; cited from earlier work", "note": "At least one structure is not confirmed: it was looked up by name or label, or the drawing left a doubt."}
{"smiles": "Cc1ccc(-c2cc(C(F)(F)F)nn2-c2ccc(S(N)(=O)=O)cc2)cc1", "note": "[celecoxib]", "values": [{"measurement": "injury associated with ischemia/reperfusion of organs", "value": "may also contribute to a protective effect"}]}
